We go through 40 targets from the supplement of paper PMC7666118.

By UniProt entry, the sequences of proteins in these tests, tags left out. Where a name states a change or a piece, a line headed by the entry shows the natural chain unless it says otherwise.
UniProt Q16513: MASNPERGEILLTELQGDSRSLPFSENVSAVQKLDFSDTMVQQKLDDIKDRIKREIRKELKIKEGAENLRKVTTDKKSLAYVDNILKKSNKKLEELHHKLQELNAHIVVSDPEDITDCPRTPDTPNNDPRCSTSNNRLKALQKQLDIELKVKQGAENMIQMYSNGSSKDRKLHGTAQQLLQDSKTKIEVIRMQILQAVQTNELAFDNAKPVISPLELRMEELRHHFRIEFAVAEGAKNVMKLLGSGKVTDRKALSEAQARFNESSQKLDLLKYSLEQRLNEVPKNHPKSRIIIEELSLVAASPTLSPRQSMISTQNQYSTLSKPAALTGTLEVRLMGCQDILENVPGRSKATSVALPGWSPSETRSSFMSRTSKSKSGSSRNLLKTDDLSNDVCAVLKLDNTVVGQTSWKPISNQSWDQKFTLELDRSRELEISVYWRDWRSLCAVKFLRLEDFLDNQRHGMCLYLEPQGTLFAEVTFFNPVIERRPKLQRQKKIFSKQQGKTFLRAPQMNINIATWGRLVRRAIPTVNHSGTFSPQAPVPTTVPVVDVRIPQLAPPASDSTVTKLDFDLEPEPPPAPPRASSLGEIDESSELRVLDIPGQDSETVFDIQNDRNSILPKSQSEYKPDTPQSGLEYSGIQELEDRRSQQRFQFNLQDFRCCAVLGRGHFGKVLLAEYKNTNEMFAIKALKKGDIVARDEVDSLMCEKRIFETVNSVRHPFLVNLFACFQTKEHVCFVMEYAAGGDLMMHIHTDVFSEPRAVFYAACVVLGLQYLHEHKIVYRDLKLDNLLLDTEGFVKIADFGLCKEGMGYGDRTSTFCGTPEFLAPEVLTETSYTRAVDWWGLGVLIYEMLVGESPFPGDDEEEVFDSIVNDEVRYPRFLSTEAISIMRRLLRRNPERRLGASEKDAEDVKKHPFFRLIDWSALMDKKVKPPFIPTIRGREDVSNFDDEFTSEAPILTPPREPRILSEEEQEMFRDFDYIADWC
UniProt Q01804: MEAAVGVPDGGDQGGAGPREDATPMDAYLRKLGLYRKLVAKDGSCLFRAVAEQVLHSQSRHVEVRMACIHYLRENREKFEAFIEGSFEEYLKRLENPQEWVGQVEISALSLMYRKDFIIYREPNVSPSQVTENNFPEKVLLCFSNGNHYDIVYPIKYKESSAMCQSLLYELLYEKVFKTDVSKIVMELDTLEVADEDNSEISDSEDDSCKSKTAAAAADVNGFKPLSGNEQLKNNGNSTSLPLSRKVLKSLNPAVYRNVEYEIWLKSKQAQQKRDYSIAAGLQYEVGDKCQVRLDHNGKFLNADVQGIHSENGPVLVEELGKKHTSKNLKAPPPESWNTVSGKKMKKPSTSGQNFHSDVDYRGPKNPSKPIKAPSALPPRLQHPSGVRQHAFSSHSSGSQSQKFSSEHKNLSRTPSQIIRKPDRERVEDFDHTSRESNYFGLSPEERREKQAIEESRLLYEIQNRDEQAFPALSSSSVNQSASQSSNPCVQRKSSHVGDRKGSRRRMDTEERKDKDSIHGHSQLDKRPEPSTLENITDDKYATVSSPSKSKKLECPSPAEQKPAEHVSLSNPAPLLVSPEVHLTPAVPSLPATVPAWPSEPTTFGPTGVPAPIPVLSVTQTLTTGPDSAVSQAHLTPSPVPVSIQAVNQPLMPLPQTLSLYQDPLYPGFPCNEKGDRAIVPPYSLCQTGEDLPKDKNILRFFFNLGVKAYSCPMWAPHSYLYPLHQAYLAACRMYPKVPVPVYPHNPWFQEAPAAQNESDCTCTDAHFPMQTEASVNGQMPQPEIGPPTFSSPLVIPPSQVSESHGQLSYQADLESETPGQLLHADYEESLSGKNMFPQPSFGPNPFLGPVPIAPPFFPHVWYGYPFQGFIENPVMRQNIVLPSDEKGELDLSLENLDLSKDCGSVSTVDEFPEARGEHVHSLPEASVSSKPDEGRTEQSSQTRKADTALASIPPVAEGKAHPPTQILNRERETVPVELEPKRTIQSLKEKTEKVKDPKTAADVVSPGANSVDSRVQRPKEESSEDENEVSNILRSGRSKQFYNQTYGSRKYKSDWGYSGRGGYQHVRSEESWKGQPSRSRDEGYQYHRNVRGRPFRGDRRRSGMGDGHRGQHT
UniProt P09874, whole entry: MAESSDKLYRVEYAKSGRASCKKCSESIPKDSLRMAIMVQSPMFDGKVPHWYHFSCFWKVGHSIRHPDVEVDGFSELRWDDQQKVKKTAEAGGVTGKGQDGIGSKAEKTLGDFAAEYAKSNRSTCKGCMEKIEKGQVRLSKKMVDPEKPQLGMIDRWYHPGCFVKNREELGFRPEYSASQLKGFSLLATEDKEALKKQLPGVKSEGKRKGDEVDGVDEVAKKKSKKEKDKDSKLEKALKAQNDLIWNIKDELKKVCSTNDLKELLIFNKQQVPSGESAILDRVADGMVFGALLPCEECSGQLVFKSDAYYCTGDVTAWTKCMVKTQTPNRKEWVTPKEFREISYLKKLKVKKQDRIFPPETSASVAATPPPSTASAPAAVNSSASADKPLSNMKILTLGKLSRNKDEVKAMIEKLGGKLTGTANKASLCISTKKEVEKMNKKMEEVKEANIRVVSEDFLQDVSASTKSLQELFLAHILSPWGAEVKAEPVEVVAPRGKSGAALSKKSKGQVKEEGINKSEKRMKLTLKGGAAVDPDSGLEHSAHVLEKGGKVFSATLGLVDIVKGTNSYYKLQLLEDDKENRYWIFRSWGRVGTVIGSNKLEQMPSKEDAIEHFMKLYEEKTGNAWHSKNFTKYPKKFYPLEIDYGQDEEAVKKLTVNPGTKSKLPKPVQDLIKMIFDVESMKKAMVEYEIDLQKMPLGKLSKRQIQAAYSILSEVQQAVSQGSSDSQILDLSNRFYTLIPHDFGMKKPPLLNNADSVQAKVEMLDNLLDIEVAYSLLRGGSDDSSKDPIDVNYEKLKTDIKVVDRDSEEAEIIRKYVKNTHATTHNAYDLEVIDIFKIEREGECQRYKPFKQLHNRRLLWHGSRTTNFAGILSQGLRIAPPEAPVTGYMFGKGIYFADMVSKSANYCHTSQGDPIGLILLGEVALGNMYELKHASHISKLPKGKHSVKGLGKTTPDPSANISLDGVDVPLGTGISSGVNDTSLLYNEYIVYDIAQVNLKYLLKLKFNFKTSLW
UniProt O14841: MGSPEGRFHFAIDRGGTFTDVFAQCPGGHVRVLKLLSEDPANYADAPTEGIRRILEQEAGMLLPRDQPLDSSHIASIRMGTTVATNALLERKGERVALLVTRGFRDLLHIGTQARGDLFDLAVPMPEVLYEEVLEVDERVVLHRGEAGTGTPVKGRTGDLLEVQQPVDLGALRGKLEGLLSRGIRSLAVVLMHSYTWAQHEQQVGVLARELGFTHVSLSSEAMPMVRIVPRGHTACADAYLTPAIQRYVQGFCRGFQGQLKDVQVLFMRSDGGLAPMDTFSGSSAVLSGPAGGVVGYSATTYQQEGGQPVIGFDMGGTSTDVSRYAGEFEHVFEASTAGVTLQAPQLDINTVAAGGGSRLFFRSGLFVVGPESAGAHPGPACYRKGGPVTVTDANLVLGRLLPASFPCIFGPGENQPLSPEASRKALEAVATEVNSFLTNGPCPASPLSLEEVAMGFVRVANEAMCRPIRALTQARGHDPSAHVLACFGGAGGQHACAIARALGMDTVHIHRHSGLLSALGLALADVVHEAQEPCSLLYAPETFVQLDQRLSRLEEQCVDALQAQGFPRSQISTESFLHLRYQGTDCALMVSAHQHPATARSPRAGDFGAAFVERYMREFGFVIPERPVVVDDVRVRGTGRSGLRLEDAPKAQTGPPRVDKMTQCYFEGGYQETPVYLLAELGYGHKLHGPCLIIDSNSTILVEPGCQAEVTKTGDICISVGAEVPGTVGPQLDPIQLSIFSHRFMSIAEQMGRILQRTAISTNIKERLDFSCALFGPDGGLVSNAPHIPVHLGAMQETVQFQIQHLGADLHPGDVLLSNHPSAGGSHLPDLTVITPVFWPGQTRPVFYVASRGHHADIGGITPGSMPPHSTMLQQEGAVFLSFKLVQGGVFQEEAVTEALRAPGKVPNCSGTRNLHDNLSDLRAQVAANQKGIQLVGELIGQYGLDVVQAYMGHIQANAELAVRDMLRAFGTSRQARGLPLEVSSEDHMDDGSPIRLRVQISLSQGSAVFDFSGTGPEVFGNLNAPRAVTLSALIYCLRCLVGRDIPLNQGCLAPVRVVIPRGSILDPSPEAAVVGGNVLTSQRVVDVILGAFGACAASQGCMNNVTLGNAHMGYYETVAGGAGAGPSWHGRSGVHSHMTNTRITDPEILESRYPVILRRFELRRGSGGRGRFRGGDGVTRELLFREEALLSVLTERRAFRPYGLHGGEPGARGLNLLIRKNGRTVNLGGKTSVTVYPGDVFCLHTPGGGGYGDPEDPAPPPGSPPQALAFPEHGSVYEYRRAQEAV
UniProt Q8N5Y8: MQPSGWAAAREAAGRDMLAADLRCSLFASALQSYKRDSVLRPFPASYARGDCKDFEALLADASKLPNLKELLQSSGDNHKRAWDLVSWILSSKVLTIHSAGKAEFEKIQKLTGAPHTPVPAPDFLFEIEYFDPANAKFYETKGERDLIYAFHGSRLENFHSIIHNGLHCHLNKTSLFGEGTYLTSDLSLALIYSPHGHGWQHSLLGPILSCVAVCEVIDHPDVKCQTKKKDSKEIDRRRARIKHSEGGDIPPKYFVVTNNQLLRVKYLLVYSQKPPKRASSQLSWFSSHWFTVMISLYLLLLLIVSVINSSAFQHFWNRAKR
UniProt Q8N6M0: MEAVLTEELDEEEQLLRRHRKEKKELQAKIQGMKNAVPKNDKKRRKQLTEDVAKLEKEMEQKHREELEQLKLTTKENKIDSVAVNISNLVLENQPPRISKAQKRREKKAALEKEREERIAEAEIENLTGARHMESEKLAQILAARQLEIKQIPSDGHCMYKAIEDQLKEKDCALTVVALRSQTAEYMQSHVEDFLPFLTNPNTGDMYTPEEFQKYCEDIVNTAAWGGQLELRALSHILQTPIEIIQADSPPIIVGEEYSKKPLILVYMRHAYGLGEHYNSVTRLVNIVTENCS
UniProt O15067: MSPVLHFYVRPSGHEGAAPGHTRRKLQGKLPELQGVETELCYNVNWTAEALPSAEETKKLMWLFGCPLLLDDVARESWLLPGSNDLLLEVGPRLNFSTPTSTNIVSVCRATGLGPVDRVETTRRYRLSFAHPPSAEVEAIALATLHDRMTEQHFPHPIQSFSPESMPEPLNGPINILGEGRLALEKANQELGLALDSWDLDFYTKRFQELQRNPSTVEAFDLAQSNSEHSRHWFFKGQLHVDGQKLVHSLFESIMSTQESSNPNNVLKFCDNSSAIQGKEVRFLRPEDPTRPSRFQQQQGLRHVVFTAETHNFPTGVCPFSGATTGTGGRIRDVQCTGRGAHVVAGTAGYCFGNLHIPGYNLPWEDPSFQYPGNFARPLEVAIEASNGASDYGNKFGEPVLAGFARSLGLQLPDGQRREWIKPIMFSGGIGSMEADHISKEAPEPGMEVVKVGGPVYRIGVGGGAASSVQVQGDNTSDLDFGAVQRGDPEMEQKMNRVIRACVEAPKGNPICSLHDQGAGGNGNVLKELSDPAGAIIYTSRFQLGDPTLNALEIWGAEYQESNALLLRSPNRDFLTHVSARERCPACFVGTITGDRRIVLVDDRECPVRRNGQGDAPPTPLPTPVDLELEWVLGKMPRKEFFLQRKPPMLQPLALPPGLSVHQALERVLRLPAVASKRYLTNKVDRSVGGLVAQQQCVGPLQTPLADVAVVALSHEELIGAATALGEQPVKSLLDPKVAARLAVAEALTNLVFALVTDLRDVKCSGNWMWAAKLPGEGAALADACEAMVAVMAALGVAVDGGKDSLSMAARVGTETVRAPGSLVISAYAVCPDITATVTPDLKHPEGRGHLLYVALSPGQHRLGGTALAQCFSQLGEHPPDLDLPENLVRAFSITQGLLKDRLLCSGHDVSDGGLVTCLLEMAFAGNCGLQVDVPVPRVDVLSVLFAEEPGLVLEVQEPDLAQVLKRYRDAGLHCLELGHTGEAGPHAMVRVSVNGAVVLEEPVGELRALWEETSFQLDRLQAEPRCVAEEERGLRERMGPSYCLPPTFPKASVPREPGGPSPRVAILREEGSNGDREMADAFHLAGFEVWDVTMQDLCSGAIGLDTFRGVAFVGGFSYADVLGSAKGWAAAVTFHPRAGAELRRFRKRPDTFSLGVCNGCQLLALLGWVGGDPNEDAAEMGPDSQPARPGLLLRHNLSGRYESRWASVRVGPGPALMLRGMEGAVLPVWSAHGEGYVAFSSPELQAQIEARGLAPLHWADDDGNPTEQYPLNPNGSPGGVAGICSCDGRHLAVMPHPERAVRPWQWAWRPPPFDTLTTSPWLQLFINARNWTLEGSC

The other results are listed elsewhere or left out.

Compound in the test: COc1ccc(Cn2ccc3cc(C)c(C(=O)NO)cc32)cc1
Kind of test: dose-dependent thermal stabilisation call (2D-TPP, DLPTP, 10% FDR) (binary (1 = stabilised)); higher = stabilised by the compound. Conditions: system: HL-60 intact cells; concentration range 0.04-10 µM. On the procedure: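 2D thermal proteome profiling in intact HL-60 cells treated with BRD-3811 (0, 0.04, 0.29, 2, 10 uM) for 90 min at 37 C, then heated 3 min at one of 12 temperatures (42-63.9 C). Soluble protein was quantified by TMT10 MS. The value is the DLPTP call of the paper: dose-dependent thermal stabilisation over all temperatures at 10% FDR (F-test of a dose-response against a flat model); one experiment, one call per tested protein.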
Turning to PLRG1 (UniProt O43660), the “dose-dependent thermal stabilisation call” value is inactive: 0.
As for PKN2 (UniProt Q16513), the “dose-dependent thermal stabilisation call” value was inactive: 0.
The same measure for PARD3 (UniProt Q8TEW0): inactive: 0; for PAPSS1 (UniProt O43252): inactive: 0; for PHF6 (UniProt Q8IWS0): inactive: 0.
The same measure for OTUD4 (UniProt Q01804): inactive: 0; for PLOD3 (UniProt O60568): inactive: 0.
On to PFKP (UniProt Q01813), for which the “dose-dependent thermal stabilisation call” value is inactive: 0.
The same measure for PICK1 (UniProt Q9NRD5): inactive: 0; for PEX10 (UniProt O60683): inactive: 0; for PARP1 (UniProt P09874): inactive: 0.
The same measure for PIK3CG (UniProt P48736): inactive: 0; for PAK1 (UniProt Q13153): inactive: 0.
The same measure for OSBPL8 (UniProt Q9BZF1): inactive: 0; for PARL (UniProt Q9H300): inactive: 0.
Regarding PIBF1 (UniProt Q8WXW3), the “dose-dependent thermal stabilisation call” value is inactive: 0.
Turning to PARP2 (UniProt Q9UGN5), the “dose-dependent thermal stabilisation call” value is inactive: 0.
The same measure for PANK2 (UniProt Q9BZ23): inactive: 0; for PAK1IP1 (UniProt Q9NWT1): inactive: 0; for OPLAH (UniProt O14841): inactive: 0.
Regarding OGFOD3 (UniProt Q6PK18), the “dose-dependent thermal stabilisation call” value was inactive: 0.
Regarding PCK2 (UniProt Q16822), the “dose-dependent thermal stabilisation call” value was inactive: 0.
Take PARP16 (UniProt Q8N5Y8): the “dose-dependent thermal stabilisation call” value was inactive: 0.
Take PCM1 (UniProt Q15154): the “dose-dependent thermal stabilisation call” value was inactive: 0.
The same measure for OTUD6B (UniProt Q8N6M0): inactive: 0; for P2RY2 (UniProt P41231): inactive: 0; for PFAS (UniProt O15067): inactive: 0.
The same measure for PCNT (UniProt O95613): inactive: 0; for PACSIN3 (UniProt Q9UKS6): inactive: 0.
Consider PEX16 (UniProt Q9Y5Y5), for which the “dose-dependent thermal stabilisation call” value is inactive: 0.
The same measure for OPA1 (UniProt O60313): inactive: 0; for PIK3AP1 (UniProt Q6ZUJ8): inactive: 0; for PEX6 (UniProt Q13608): inactive: 0.
The same measure for PIGL (UniProt Q9Y2B2): inactive: 0.
The same measure for OSBPL5 (UniProt Q9H0X9): inactive: 0; for PDCD4 (UniProt Q53EL6): inactive: 0.
For PLOD1 (UniProt Q02809), the “dose-dependent thermal stabilisation call” value is inactive: 0.
For the target PGAP1 (UniProt Q75T13), the “dose-dependent thermal stabilisation call” value is inactive: 0.
Take PECI (UniProt O75521): the “dose-dependent thermal stabilisation call” value is inactive: 0.
The same measure for OXSR1 (UniProt O95747): inactive: 0.
